# Results from patent US5610140A, “Bradykinin receptor antagonists with neurokinin receptor blocking activity” (priority 1994, dated 1997).
# Not every detail of the peptide structures is certain; ends, links or a residue may be inferred. Square brackets hold non-standard residues; d marks the D form. Peptide text beside a SMILES is read from it. * marks the point of attachment. X5 = C[C@@H](O)[C@H](NC(=O)CCCN1C(=O)CC(*)C1=O)C(=O)N[C@H](Cc1cn(C=O)c2ccccc12)C(=O)N[C@@H](Cc1ccccc1)C(=O)N(C)Cc1ccccc1; Hyp = O=C(O)[C@@H]1C[C@@H](O)CN1
# Molecular target: T1, Bradykinin 2 (BK2) receptor (Rattus norvegicus, UniProt P25023)
# T1 sequence (P25023 1-396): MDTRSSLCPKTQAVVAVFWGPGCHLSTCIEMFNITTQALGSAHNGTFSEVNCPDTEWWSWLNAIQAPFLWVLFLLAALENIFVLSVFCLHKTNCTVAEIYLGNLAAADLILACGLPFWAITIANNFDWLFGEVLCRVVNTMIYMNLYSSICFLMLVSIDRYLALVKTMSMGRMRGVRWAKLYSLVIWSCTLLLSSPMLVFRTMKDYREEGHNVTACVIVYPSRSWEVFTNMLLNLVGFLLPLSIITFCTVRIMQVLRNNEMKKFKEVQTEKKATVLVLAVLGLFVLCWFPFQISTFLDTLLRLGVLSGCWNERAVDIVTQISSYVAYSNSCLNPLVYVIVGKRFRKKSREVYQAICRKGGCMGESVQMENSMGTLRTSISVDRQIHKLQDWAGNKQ
# Conditions: rat uterus, agonist bradykinin
compound,measurement,value
CC(C)C[C@H](NC(=O)[C@@H](Cc1ccccc1)NC(=O)[C@H](CSC1CC(=O)N(CCCC(=O)N[C@H](C(=O)N[C@H](Cc2cn(C=O)c3ccccc23)C(=O)N[C@@H](Cc2ccccc2)C(=O)N(C)Cc2ccccc2)[C@@H](C)O)C1=O)NC(=O)[C@H](Cc1ccccc1)NC(=O)CNC(=O)[C@@H]1C[C@@H](O)CN1C(=O)[C@@H]1CCCN1C(=O)[C@H](CCCNC(=N)N)NC(=O)[C@H](N)CCCNC(=N)N)C(=O)N[C@@H](CCCNC(=N)N)C(=O)O (stereo partly shown) [Compound 2] (H-[dR]RP[Hyp]GFC(X5)[dF]LR-OH),BK2 pA2,8.2
